Assay results as given in patent US20210238283A1.
No constants are given. Whether binding was seen depends on the method and setting. Some results given as binding are weak or reduced against the parent protein; the word gives no strength. For some of these results: Sequences can lack the tags named with a protein.

The chains behind the UniProt entries cited, without tags or fusion partners. Residues count along the entry.
UniProt Q61790, residues 24-521: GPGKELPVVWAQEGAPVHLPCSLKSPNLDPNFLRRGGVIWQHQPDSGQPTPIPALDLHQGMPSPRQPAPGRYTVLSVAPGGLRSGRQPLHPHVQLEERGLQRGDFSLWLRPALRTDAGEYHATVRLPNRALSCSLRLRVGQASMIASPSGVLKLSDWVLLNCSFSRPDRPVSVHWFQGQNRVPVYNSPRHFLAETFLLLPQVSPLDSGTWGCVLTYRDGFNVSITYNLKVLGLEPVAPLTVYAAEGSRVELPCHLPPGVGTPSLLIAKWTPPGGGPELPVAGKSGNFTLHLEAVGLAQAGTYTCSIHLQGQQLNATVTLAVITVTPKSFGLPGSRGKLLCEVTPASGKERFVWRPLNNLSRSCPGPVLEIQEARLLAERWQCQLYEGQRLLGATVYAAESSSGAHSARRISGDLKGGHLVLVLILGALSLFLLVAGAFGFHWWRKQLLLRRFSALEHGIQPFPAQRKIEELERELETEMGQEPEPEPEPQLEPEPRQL

How the values were obtained:
[1] = target: T1, recombinant human LAG-3-his (#16498-H08H, Sino Biological Inc.) (human) (UniProt P18627); experiment: scFv phage ELISA on coated antigen, A490
T1 sequence (looked up): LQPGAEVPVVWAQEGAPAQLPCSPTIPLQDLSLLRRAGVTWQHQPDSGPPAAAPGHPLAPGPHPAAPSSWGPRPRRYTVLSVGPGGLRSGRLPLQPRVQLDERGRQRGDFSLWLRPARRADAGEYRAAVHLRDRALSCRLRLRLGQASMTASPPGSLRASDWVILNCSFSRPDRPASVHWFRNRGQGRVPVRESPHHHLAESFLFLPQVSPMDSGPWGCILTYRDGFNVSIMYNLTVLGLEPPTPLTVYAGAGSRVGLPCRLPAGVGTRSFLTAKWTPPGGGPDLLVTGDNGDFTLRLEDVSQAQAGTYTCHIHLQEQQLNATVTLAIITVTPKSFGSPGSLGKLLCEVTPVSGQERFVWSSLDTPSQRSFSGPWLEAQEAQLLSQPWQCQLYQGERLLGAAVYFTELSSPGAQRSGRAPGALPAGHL

[2] = target: T1, recombinant human LAG-3-his (#16498-H08H, Sino Biological Inc.) (human); experiment: ELISA on coated recombinant LAG-3 protein, A490
[3] = target: human LAG-3 overexpressed on cells (human) (UniProt P18627); experiment: flow cytometry, HEK293E cells overexpressing LAG-3, antibody 2 µg/ml
[4] = target: mouse LAG-3 overexpressed on HEK293E cells (mouse) (UniProt Q61790); experiment: as above

Measured: binding

B1: LAG3-1E09_AM_2H01 (antibody, V domains shown)
VH: EVQLVESGGDLVQPGGSLRLSCAASGFTFSDHYMNWVRQAPGKGLEWVAYIDTSATYIYYADSVKGRFTISRDNAKNSLYLQMNSLRAEDTAVYYCARDNWGSLDYWGQGTLVTVSS
VL: DIQMTQSPSSLSASVGDRVTITCQASQDISNYLNWYQQKPGKAPNLLIYDASTLETGVPSRFSGSGYGTDFTLTISGLQPDDFALYYCQQSYSTPYSFGPGTKVEIK
binds: [1] | [2] | [3] | [4]
